The record followed here is the supplement of paper PMC7024190.

Structures can show the parent of a compound that is named as a salt. The list shows a part of the results. This data set is noisy: repeats of one test often differ as much as different tests do.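 Human embryonic kidney cells were transiently transfected with a plasmid bearing a Renilla luciferase gene under the HSV-TK promoter. This first-round screen tests roughly ten thousand compounds for ones that increase reporter output.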

In the assay the test system is HEK 293FT. Nature of the assay: log relative Renilla luciferase luminescence (reporter expression vs reference, reference not stated) (log (base not stated)); higher = higher recombinant reporter expression. The settings on record: 10 µM; time after transfection 48 h.
For `COc1cc(NS(=O)(=O)c2ccc(NC(C)=O)cc2)nc(OC)n1` [Acetylsulfadimethoxine], the log turned out to be 0.224.

As for `O=C(O)c1cc(=O)cc(C(=O)O)o1` [Chelidonic acid], the log stood at 0.00309.

For the molecule `O=C1c2c(O)cccc2C([C@@H]2O[C@H](CO)[C@@H](O)[C@H](O)[C@H]2O)c2cc(CO)cc(O)c21` (stereo not given in full) [Barbaloin], the log was determined as 0.00131.

Regarding `COc1ccccc1N1CCN(CC(O)COc2cccc3ccccc23)CC1` (stereo not given) [Naftopidil], the log amounted to 0.0502.

Turning to `CC(=O)OCC(=O)[C@@]1(O)CC[C@H]2[C@@H]3C[C@H](C)C4=CC(=O)C=C[C@]4(C)[C@H]3[C@@H](O)C[C@@]21C` [Methylprednisolone acetate], the log was -0.02.

Consider `C=CCc1ccc(O)c(O)c1` [Hydroxychavicol], for which the log is 0.0586.

On to `C[C@]12C=CC(=O)N[C@@H]1CC[C@@H]1[C@@H]2CC[C@]2(C)[C@@H](C(=O)Nc3cc(C(F)(F)F)ccc3C(F)(F)F)CC[C@@H]12` [Dutasteride], for which the log is -0.0405.

With `Nc1nc2c(Cl)c(Cl)ccc2s1`, the log stood at 0.0638.

As to `Cc1c(Cn2ccnc2)c2ccccc2n1CCC(=O)O` [Dazmegrel], the log is -0.138.

For the molecule `COc1ccc2c(c1OC)CN(C)CCc1cc3c(cc1C(=O)C2)OCO3` [Allocryptopine], the log is 0.169.

With `CC(=O)/C=C/C=C(\C)CCC=C(C)C` [Pseudoionone], the log is 0.0405.

With `CN[C@@H]1[C@H](O[C@H]2[C@H](O[C@H]3[C@H](O)[C@@H](O)[C@H](N=C(N)N)[C@@H](O)[C@@H]3N=C(N)N)O[C@@H](C)[C@]2(O)C=O)O[C@@H](CO)[C@H](O)[C@H]1O` [Streptomycin], the log was -0.204.

Regarding `CN1C(=S)SC(c2ccccc2)N(C)C1c1ccccc1` (stereo not given), the log is 0.142.

For `CCC(=O)OCC(=O)[C@@]1(O)CC[C@H]2[C@@H]3CCC4=CC(=O)C=C[C@]4(C)[C@H]3[C@@H](O)C[C@@]21C` [Prednisolone-21-propionate], the log is 0.076.

In the case of `CC(=O)Nc1ccc(S(=O)(=O)Nc2ccc(S(N)(=O)=O)cc2)cc1` [Acetyldisulfanilamide], the log turned out to be 0.0918.

Take `O=C1Nc2ccccc2C1(c1ccc(O)cc1)c1ccc(O)cc1` [Oxyphenisatine]: the log was determined as 0.115.

Regarding `COC(=O)C1=C(C)NC(C)=C(C(=O)OCCN2CCN(C(c3ccccc3)c3ccccc3)CC2)C1c1cccc([N+](=O)[O-])c1` (stereo not given) [Manidipine Dihydrochloride], the log was -0.0418.

Regarding `COc1cc(C)c(C(=O)Oc2cc(C)c(C(=O)O)c(O)c2C)c(OC)c1C` [Diffractaic acid], the log turned out to be 0.149.

Take `O=C(COc1ccc(Cl)cc1)N1CCN(Cc2ccc3c(c2)OCO3)CC1` [Fipexide]: the log was found to be 0.0884.

For the molecule `O=C(O)c1cc(-c2ccccc2)nc2ccccc12` [Cinchophen], the log was determined as 0.118.

On to `O=C1C=CC(=O)c2c(O)c(O)c(O)c(O)c21` [Spinizarine], for which the log was -0.238.

For `Nc1ccn([C@@H]2CS[C@H](CO)O2)c(=O)n1` [Lamivudine], the log is 0.077.

Regarding `Cc1cccn2c(=O)c(-c3nnn[nH]3)cnc12` [Pemirolast potassium], the log is -0.112.

For the molecule `COc1c(N2CCNC(C)C2)c(F)cc2c(=O)c(C(=O)O)cn(C3CC3)c12` (stereo not given) [Gatifloxacin], the log was found to be 0.0854.

`CC(=O)Oc1ccc2ccc(=O)oc2c1` [7-Acetoxycoumarin]: the log is 0.0513.

As to `COc1ccc2nc(NC(=O)Nc3ccccc3)sc2c1` [Frentizole], the log stood at 0.0913.

For the molecule `CC(C)NCC(O)c1ccc(NS(C)(=O)=O)cc1` (stereo not given) [Sotalol Hydrochloride], the log is -0.034.

Turning to `Cc1c(CCCl)c(Cl)n2c(nc3ccccc32)c1C#N`, the log is -0.224.

For the molecule `COc1ccc2c(c1)C(=O)N(CCc1ccc(S(=O)(=O)NC(=O)NC3CCCCC3)cc1)C(=O)C2(C)C` [Gliquidone], the log is -0.801.

For the molecule `Cc1ncc([N+](=O)[O-])n1CCOC(=O)c1ccccc1` [Metronidazole Benzoate], the log is -0.196.

In the case of `C[C@]12C=CC(=O)C=C1CC[C@H]1[C@@H]3C[C@@H](O)[C@](O)(C(=O)CO)[C@@]3(C)C[C@H](O)[C@@]12F` [Triamcinolone], the log was found to be 0.121.

Regarding `COC(=O)C1=C(C)NC(C)=C(C(=O)OC(C)(C)CN(C)CCC(c2ccccc2)c2ccccc2)C1c1cccc([N+](=O)[O-])c1` (stereo not given) [Lercanidipine Hydrochloride], the log was -0.0795.

Consider `O=C(O)CCC(=O)Nc1ccc(S(=O)(=O)Nc2nccs2)cc1` [Succinylsulfathiazole], for which the log stood at 0.0918.

`Clc1ccc2c(c1)C(c1ccccc1)=Nc1ccc(Cl)cc1C(c1ccccc1)=N2`: the log turned out to be 0.0449.

`O=C1C=C(O)C(=O)c2ccccc21` [Lawsone]: the log came to 0.165.

Take `C[C@]12CC[C@H]3[C@@H](CCC4=CC(=O)CC[C@@]43C)[C@@H]1CC[C@@H]2C(=O)COC(=O)CCc1ccccc1` [Cortexone phenylpropionate]: the log was -0.201.

As for `N#CC1=C(N)Oc2c(ccc3ccccc23)C1c1cccc([N+](=O)[O-])c1` (stereo not given), the log was -1.02.

As to `Oc1c(Br)cc(Cl)cc1Sc1cc(Cl)cc(Br)c1O` [Galosfen], the log was 0.0159.

Regarding `O=C(O)c1ccccc1Nc1ccn2c(=O)c3ccccc3nc2n1` [Pyrimidant], the log is 0.148.

Regarding `COc1ccc2ccc(=O)oc2c1OCC=C(C)C` [7-Methoxy-8-prenyloxycoumarin], the log was found to be 0.0279.
